Experimental data as given in patent publication US20030229044A1, “Use of statins and other immunomodulatory agents in the treatment of autoimmune disease” (priority 2002, published 2003).

Experiments:
[1] = system: CIITA transcripts in the CNS; settings: brain, SJL/J mice, 1 or 10 mg/kg oral for 12 days
[2] = system: CNS infiltrates in brains of EAE mice; settings: H&E brain sections, 1 and 10 mg/kg, vs PBS treated mice; day 22 after EAE induction, C57BL/6

CC(C)c1c(C(=O)Nc2ccccc2)c(-c2ccccc2)c(-c2ccc(F)cc2)n1CC[C@@H](O)C[C@@H](O)CC(=O)O [atorvastatin]
CIITA PIV transcript [1]: dose dependent inhibition | specific isoforms of CIITA (PI, PIII, PIV) [1]: inhibits all three specific isoforms of CIITA | total expression of CIITA transcripts ([1]; day 10 of EAE): inhibited the total expression of CIITA transcripts in a dose response matter | number and size of CNS infiltrates [2]: reduction in number and size of CNS infiltrates
